Measurements: the supplement of paper PMC12823440, “Inhibitors supercharge kinase turnover through native proteolytic circuits” (Nature, 2025)
Counter-ions that a name gives are not always drawn. The list shows a part of the results. The calls rarely recur for the same compound in another form.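 Kinases were expressed as nanoluciferase fusions in K562 cells and luminescence was read every 4 h between 2 and 18 h as percent of control, DMSO set to 100% and a positive control to 0%. A time point counts as decreased when the signal drops significantly (2 sigma). The hit call is the authors' own, does not follow from the count of time points alone, and its rule is not shown.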

Target: PRKCA (UniProt P17252)
Test: kinase-Nluc reporter destabilization hit call (1 = scored as downregulated) (binary); higher = compound decreases kinase abundance
Settings: K562; 2-18 h

kinase-Nluc reporter destabilization hit call, inactive:
O=C(CSC1=NCCN1)NC1CCCCCC1 [ICCB-19 (hydrochloride)] (2.5 µM) 0
CCCS(=O)(=O)Nc1ccc(F)c(C(=O)c2c[nH]c3ncc(-c4ccc(Cl)cc4)cc23)c1F [Vemurafenib] (10 µM) 0
Cc1ccc(OCCSc2ncccn2)c(Br)c1 [ZLN024 (hydrochloride)] (10 µM) 0
Nc1ncnc2c1c(-c1ccc(Oc3ccccc3)cc1)nn2C1CCCC1 (2.5 µM) 0
COc1ncc(Cl)cc1S(=O)(=O)Nc1ccc(F)c(C#Cc2cnc(N)nc2)c1F (2.5 µM) 0
Cc1ccc(CNc2ncnc3ccc(-c4ccc(CO)o4)cc23)o1 (10 µM) 0
NC(=O)c1nnc(N[C@@H]2CCCC[C@@H]2N)nc1Nc1cccc2cc[nH]c12 (10 µM) 0
CNc1nc(Nc2ccc(C(=O)N3CCOCC3)cc2OC)nc2[nH]cc(Cl)c12 (2.5 µM) 0
CCNc1nc(Nc2cc(F)c(C(=O)N3CCOCC3)cc2OC)ncc1C(F)(F)F [GNE-7915 (tosylate)] (10 µM) 0
CCN1CCN(Cc2ccc(Nc3ncc(F)c(-c4cc(F)c5nc(C)n(C(C)C)c5c4)n3)nc2)CC1 [Abemaciclib] (2 µM) 0
COCCNc1nc2ccc(C#CC3(O)CCCCC3)cc2n1-c1ccnc(N)n1 (10 µM) 0
OCCn1cc(-c2ccc3c(c2)CC/C3=N\O)c(-c2ccncc2)n1 (10 µM) 0
O=C1N[C@@H](Cc2c[nH]c3ccccc23)C(=O)N2CCC[C@@H]12 [Brevianamide F] (10 µM) 0
Cn1nccc1Nc1nccc(-c2ccn([C@H](CO)c3ccc(Cl)c(F)c3)c(=O)c2)n1 [Ravoxertinib] (10 µM) 0
O=C(NCCN1CCOCC1)c1cc2c(Oc3ccc(NC(=O)C4(C(=O)Nc5ccc(F)cc5)CC4)cc3)ccnc2[nH]1 [Tyrosine kinase inhibitor] (10 µM) 0
COc1cc2c(N3CCN(C(=O)Nc4ccc(OC(C)C)cc4)CC3)ncnc2cc1OCCCN1CCCCC1 [Tandutinib (hydrochloride)] (10 µM) 0
COc1cc(/C=C/C(=O)NCC(O)c2ccc(O)cc2)ccc1O (stereo unspecified) [N-Feruloyloctopamine] (2.5 µM) 0
COc1cc2nccc(Oc3ccc(NC(=O)NC4CC4)c(Cl)c3)c2cc1C(N)=O [Lenvatinib (mesylate)] (10 µM) 0
CN1CCN(c2cccc(Nc3nc4c(-c5ccc(S(C)(=O)=O)cc5)cccn4n3)c2)CC1 (10 µM) 0
C=C(CC[C@@H](C(=O)O)[C@H]1[C@H](O)C[C@@]2(C)C3=C(CC[C@]12C)[C@@]1(C)CC[C@H](OC(C)=O)C(C)(C)[C@@H]1CC3)C(C)C [Pachymic acid] (10 µM) 0
O=c1[nH]c(=O)n([C@@H]2O[C@H](CO)[C@@H](O)[C@@H]2O)cc1/C=C/Br [Sorivudine] (10 µM) 0
NC(=O)c1ccc(-c2nc(-c3ccc4c(c3)OCCO4)c(-c3ccccn3)[nH]2)cc1 (10 µM) 0
CC#CC(=O)Nc1ccc2ncnc(Nc3cccc(Br)c3)c2c1 (10 µM) 0
CCc1c(C(=O)NNC(=O)C(O)c2cc(F)cc(F)c2)ccc(O)c1C (stereo unspecified) (10 µM) 0
CC(=O)c1c(C)cc2cccc(O)c2c1O [Nepodin] (10 µM) 0
Cc1c(-c2c(F)cc(C(N)=O)c3[nH]c4c(c23)CC[C@H](C(C)(C)O)C4)cccc1-n1c(=O)c2cccc(F)c2n(C)c1=O (2.5 µM) 0
CCc1cc2c(cc1N1CCC(N3CCOCC3)CC1)C(C)(C)c1[nH]c3cc(C#N)ccc3c1C2=O [Alectinib] (10 µM) 0
FC(F)c1nc2ccccc2n1-c1nc(N2CCOCC2)nc(N2CCOCC2)n1 (2 µM) 0
FC(F)(c1ccc2ncccc2c1)c1nnc2ccc(-c3ccncc3)nn12 (10 µM) 0
Cn1cc(-c2cnn3c(N)c(Br)c([C@@H]4CCCNC4)nc23)cn1 (2.5 µM) 0
C[C@@H]1COCCN1c1cc(C2([S@@](C)(=N)=O)CC2)nc(-c2ccnc3[nH]ccc23)n1 [(S)-Ceralasertib] (10 µM) 0

Random excerpt: 2 entries already listed.
kinase-Nluc reporter destabilization hit call, inactive:
CCc1cc2c(cc1N1CCC(N3CCOCC3)CC1)C(C)(C)c1[nH]c3cc(C#N)ccc3c1C2=O [Alectinib] (10 µM) 0
CC(=O)c1c(C)cc2cccc(O)c2c1O [Nepodin] (10 µM) 0
